The assay concerns BDF1 mice, P388 leukemia ip, median survival T/C. Put plainly: NCI In Vivo Anticancer Drug Screen. Data for tumor model P388 Leukemia (intraperitoneal) in B6D2F1 (BDF1) mice. To be noted: T/C endpoint: median survival time, higher T/C = longer survival. The gist of the method:
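Antitumour effect was judged in vivo: survival in drug-treated mice, normalised to that of vehicle-dosed controls, gives the reported T/C.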

The list shows only some results of the screen, not a fair sample: it gathers tests that were run many times, whatever their T/C, doses with no T/C, and many T/C values between a quarter and a half above the control. Other doses and runs of a compound stand elsewhere. T/C: endpoint of the treated group in % of that of the vehicle group. Some entries give survivors of the animals treated and no T/C: the source holds a T/C of zero for them, seemingly a mark for toxic or unscored doses. Some survivor counts are full or nearly so, which does not show that the dose was tolerated: survival well below the control is almost never listed, so the zero probably covers shortened survival too. Survivors were counted at the toxicity check, usually on the fifth day, unless a day is given; later deaths do not show. Schedules are NCI's codes, taken here to give the interval after Q, in days (D) or hours (H), and the number of doses after X. Where survival is the endpoint, this PubChem deposit counts one and a half times the control or more as active, and values a quarter to a half above the control carry no call in these data; other NCI protocols may use other cut-offs.

For `CC(=O)[C@H]1CC[C@H]2[C@@H]3C[C@H](C)C4=CC(=O)CC[C@]4(C)[C@H]3[C@@H](O)C[C@]12C`, the survivor count (dose: 400.0 mg/kg/injection, schedule: Q04DX003 (ip), vehicle: saline with Tween-80) was 1 of 6.
For the molecule `CNC(=N)c1ccc(NC(=N)c2ccc(NC(=N)c3ccc(NC(=O)Nc4ccc(C(=N)Nc5ccc(C(=N)Nc6ccc(C(=N)NC)cc6)cc5)cc4)cc3)cc2)cc1`, the T/C reads like this: (dose: 5.5 mg/kg/injection, schedule: Q04DX003 (ip), vehicle: saline with Tween-80) 141 % of control; (dose: 6.25 mg/kg/injection, schedule: Q01DX009 (ip), vehicle: saline with Tween-80) 126 % of control; (dose: 6.25 mg/kg/injection, schedule: Q04DX003 (ip), vehicle: saline with Tween-80) 145 % of control; (dose: 8.0 mg/kg/injection, schedule: Q04DX003 (ip), vehicle: saline with Tween-80) 133 % of control; (dose: 12.5 mg/kg/injection, schedule: Q01DX009 (ip), vehicle: saline with Tween-80) 134 % of control; (dose: 12.5 mg/kg/injection, schedule: Q04DX003 (ip), vehicle: saline with Tween-80) 141 % of control. The survivor count (dose: 150.0 mg/kg/injection, schedule: Q04DX003 (ip), vehicle: saline with Tween-80) is on record as 2 of 6.
For the molecule `[N-]=[N+]=CC(=O)NCC(=O)NO`, for the setting “dose: 600.0 mg/kg/injection, schedule: Q01DX009 (ip), vehicle: water”, the survivor count is reported as 6 of 6.

The values are drawn from PubChem BioAssay AID328 (DTP/NCI, 2004).
